Test results published in US20210017264A1 (SHANGHAI YILE BIOTECHNOLOGY, published 2021).
These are yes or no findings as the source states them, for the method shown. Some binding calls cover weakened binding; strength is not graded here.

Tests used:
[1] = target: T1, prokaryotically expressed mouse proBDNF (purchased from Alomone Labs Corporation) (mouse) (UniProt P21237); test: ELISA; 50 ng antigen coated, HRP-labeled 2B11 at 1 ug/ml, A405
T1 sequence (looked up): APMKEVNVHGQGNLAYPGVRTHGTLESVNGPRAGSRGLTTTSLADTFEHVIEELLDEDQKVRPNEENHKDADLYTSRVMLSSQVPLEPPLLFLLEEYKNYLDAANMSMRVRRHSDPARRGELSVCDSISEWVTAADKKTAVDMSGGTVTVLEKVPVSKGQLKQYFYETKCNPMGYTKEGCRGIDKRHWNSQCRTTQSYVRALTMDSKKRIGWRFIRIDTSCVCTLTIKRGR

[2] = target: T2, human proBDNF protein (prokaryotically expressed, Example 1) (human) (UniProt P23560); test: as above
T2 sequence (looked up): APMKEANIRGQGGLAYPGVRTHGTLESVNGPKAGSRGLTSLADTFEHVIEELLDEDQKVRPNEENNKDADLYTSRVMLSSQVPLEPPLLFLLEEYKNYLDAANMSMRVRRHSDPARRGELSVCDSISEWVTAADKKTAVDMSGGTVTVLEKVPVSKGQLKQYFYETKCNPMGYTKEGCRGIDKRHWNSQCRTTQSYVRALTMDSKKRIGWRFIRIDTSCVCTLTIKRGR

[3] = target: T2, human proBDNF protein (prokaryotically expressed, Example 1) (human); test: ELISA; 50 ng antigen coated, antibody at 1 ug/ml, HRP goat anti-mouse secondary, A405

binding [1]: binds
binding [2]: binds
binding [3]: binds
B1: anti-proBDNF monoclonal antibody 2B11 (antibody, human IgG1, kappa, V domains shown)
VH: EVKVVESGGGLVQPGGSLRLSCATSGFTFTDYYMSWVRQPPGKALEWLGFIRNKANGYTTEYSSSVKGRFTISRDNSQSILYLQMNTLRAEDSATYYCAITMDYWGQGTSVTVSS
VL: DIQMTQSPASLSASVGETVTITCRASGNIHNYLAWYQKKQGKSPHLLVYNAQTLADGVPSRFSGSASGTQYSLKIDSLQPEDFGSYYCQHFWSTPFTFGSGTKLEIKR
notes: also called murine monoclonal antibody 2B11; antibody secreted from clone 2B11
